Data as given in PubChem BioAssay AID1508597 (Cure First, 2020)
The whole screen tested about 2,100 reagents; shown is a random part of them. 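Calls flag viability under 80% in either arm, not effects specific to rucaparib; the reference for percent is not stated.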 Entries without a mark were called inactive. Some reagents were tested in more than one well and are listed for each. No sequences are given here. Not stated in the record: the 100% reference.

Test: 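Genes whose silencing sensitises or protects ovarian cancer cells against rucaparib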 (primary screen)
System: human ovarian carcinoma lines grown from tumours: OCI-P5x (papillary serous) and OCI-C5x (clear cell)
Reagent: siRNA pool against human genes, 1.25 pmol siRNA per well
Time to read-out: 72 h or 96 h, depending on the cell culture
Conditions: rucaparib 20 µM (about IC30) or vehicle, present until read-out
Detection: 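ATP luminescence measured at 72 or 96 h according to the culture, then normalised and expressed as percent viability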
Direction: viability, normalised: higher = more viable cells remaining
Active means: 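Active when normalised viability falls below 80 percent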
Meaning of the calls: active = viability under 80%; inactive = viability 80% or more

| target | rucaparib or vehicle | cell line | technical replicate | viability, normalised (%) |
| --- | --- | --- | --- | --- |
| METTL8 | Rucaparib | OCI-C5x (clear cell) | 1 | 28.5 (active) |
| METTL8 | Rucaparib | OCI-C5x (clear cell) | 2 | 31.1 (active) |
| METTL8 | Rucaparib | OCI-C5x (clear cell) | 3 | 36.8 (active) |
| METTL8 | Rucaparib | OCI-P5x (serous) | 1 | 50.6 (active) |
| METTL8 | Rucaparib | OCI-P5x (serous) | 2 | 47.1 (active) |
| METTL8 | Rucaparib | OCI-P5x (serous) | 3 | 51.8 (active) |
| METTL8 | Vehicle | OCI-C5x (clear cell) | 1 | 38 (active) |
| METTL8 | Vehicle | OCI-C5x (clear cell) | 2 | 39.1 (active) |
| METTL8 | Vehicle | OCI-C5x (clear cell) | 3 | 38.4 (active) |
| METTL8 | Vehicle | OCI-P5x (serous) | 1 | 53.7 (active) |
| METTL8 | Vehicle | OCI-P5x (serous) | 2 | 60.8 (active) |
| METTL8 | Vehicle | OCI-P5x (serous) | 3 | 56.5 (active) |
| PLG | Rucaparib | OCI-C5x (clear cell) | 1 | 50.2 (active) |
| PLG | Rucaparib | OCI-C5x (clear cell) | 2 | 51.2 (active) |
| PLG | Rucaparib | OCI-C5x (clear cell) | 3 | 35.5 (active) |
| PLG | Rucaparib | OCI-P5x (serous) | 1 | 60.5 (active) |
| PLG | Rucaparib | OCI-P5x (serous) | 2 | 52.9 (active) |
| PLG | Rucaparib | OCI-P5x (serous) | 3 | 59.5 (active) |
| PLG | Vehicle | OCI-C5x (clear cell) | 1 | 44.2 (active) |
| PLG | Vehicle | OCI-C5x (clear cell) | 2 | 36.9 (active) |
| PLG | Vehicle | OCI-C5x (clear cell) | 3 | 48 (active) |
| PLG | Vehicle | OCI-P5x (serous) | 1 | 69 (active) |
| PLG | Vehicle | OCI-P5x (serous) | 2 | 71.7 (active) |
| PLG | Vehicle | OCI-P5x (serous) | 3 | 158 |

Sorted by “viability, normalised (%)” (lowest first): 9 of the entries above
| target | rucaparib or vehicle | cell line | technical replicate | viability, normalised (%) |
| --- | --- | --- | --- | --- |
| PLG | Rucaparib | OCI-C5x (clear cell) | 3 | 35.5 (active) |
| PLG | Vehicle | OCI-C5x (clear cell) | 2 | 36.9 (active) |
| PLG | Vehicle | OCI-C5x (clear cell) | 1 | 44.2 (active) |
| PLG | Vehicle | OCI-C5x (clear cell) | 3 | 48 (active) |
| PLG | Rucaparib | OCI-C5x (clear cell) | 1 | 50.2 (active) |
| PLG | Rucaparib | OCI-C5x (clear cell) | 2 | 51.2 (active) |
| PLG | Rucaparib | OCI-P5x (serous) | 2 | 52.9 (active) |
| PLG | Rucaparib | OCI-P5x (serous) | 3 | 59.5 (active) |
| PLG | Rucaparib | OCI-P5x (serous) | 1 | 60.5 (active) |

Further records:
| target | rucaparib or vehicle | cell line | technical replicate | viability, normalised (%) |
| --- | --- | --- | --- | --- |
| TK1 | Rucaparib | OCI-C5x (clear cell) | 1 | 49.3 (active) |
| TK1 | Rucaparib | OCI-C5x (clear cell) | 1 | 38.2 (active) |
| TK1 | Rucaparib | OCI-C5x (clear cell) | 2 | 48.5 (active) |
| TK1 | Rucaparib | OCI-C5x (clear cell) | 2 | 51.8 (active) |
| TK1 | Rucaparib | OCI-C5x (clear cell) | 3 | 49.8 (active) |
| TK1 | Rucaparib | OCI-C5x (clear cell) | 3 | 44.2 (active) |
| TK1 | Rucaparib | OCI-P5x (serous) | 1 | 88.6 |
| TK1 | Rucaparib | OCI-P5x (serous) | 1 | 87 |
| TK1 | Rucaparib | OCI-P5x (serous) | 2 | 83.1 |
| TK1 | Rucaparib | OCI-P5x (serous) | 2 | 91 |
| TK1 | Rucaparib | OCI-P5x (serous) | 3 | 75.4 (active) |
| TK1 | Rucaparib | OCI-P5x (serous) | 3 | 78.9 (active) |
| TK1 | Vehicle | OCI-C5x (clear cell) | 1 | 66.7 (active) |
| TK1 | Vehicle | OCI-C5x (clear cell) | 1 | 55.9 (active) |
| TK1 | Vehicle | OCI-C5x (clear cell) | 2 | 67.1 (active) |
| TK1 | Vehicle | OCI-C5x (clear cell) | 2 | 52.4 (active) |
| TK1 | Vehicle | OCI-C5x (clear cell) | 3 | 48.2 (active) |
| TK1 | Vehicle | OCI-C5x (clear cell) | 3 | 51.6 (active) |
| TK1 | Vehicle | OCI-P5x (serous) | 1 | 86.3 |
| TK1 | Vehicle | OCI-P5x (serous) | 1 | 87.2 |
| TK1 | Vehicle | OCI-P5x (serous) | 2 | 84.1 |
| TK1 | Vehicle | OCI-P5x (serous) | 2 | 82.6 |
| TK1 | Vehicle | OCI-P5x (serous) | 3 | 88.9 |
| TK1 | Vehicle | OCI-P5x (serous) | 3 | 74.1 (active) |
| RAX2 | Rucaparib | OCI-C5x (clear cell) | 1 | 54.8 (active) |
| RAX2 | Rucaparib | OCI-C5x (clear cell) | 2 | 61.5 (active) |
| RAX2 | Rucaparib | OCI-C5x (clear cell) | 3 | 52.4 (active) |
| RAX2 | Rucaparib | OCI-P5x (serous) | 1 | 89.7 |
| RAX2 | Rucaparib | OCI-P5x (serous) | 2 | 70.8 (active) |
| RAX2 | Rucaparib | OCI-P5x (serous) | 3 | 74.6 (active) |
| RAX2 | Vehicle | OCI-C5x (clear cell) | 1 | 64 (active) |
| RAX2 | Vehicle | OCI-C5x (clear cell) | 2 | 51.5 (active) |
| RAX2 | Vehicle | OCI-C5x (clear cell) | 3 | 46.5 (active) |
| RAX2 | Vehicle | OCI-P5x (serous) | 1 | 85.6 |
| RAX2 | Vehicle | OCI-P5x (serous) | 2 | 88.9 |
| RAX2 | Vehicle | OCI-P5x (serous) | 3 | 92.1 |
